Experimental findings from article PMC11239938, “Inhibition of DUSP18 impairs cholesterol biosynthesis and promotes anti-tumor immunity in colorectal cancer” (Nature Communications, 2024) are described below.

The chains behind the UniProt entries cited, without tags or fusion partners. Where a name states a change or a piece, a line headed by the entry shows the natural chain unless it says otherwise.
UniProt P22415: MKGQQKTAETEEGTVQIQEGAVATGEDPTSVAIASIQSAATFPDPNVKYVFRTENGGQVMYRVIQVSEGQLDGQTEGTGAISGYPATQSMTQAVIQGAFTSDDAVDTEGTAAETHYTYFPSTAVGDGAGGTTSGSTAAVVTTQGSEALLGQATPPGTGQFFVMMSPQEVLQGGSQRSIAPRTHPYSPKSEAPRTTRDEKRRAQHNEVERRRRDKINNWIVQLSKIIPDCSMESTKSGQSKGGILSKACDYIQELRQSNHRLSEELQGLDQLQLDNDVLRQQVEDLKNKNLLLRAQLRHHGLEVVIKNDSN

These are yes or no findings as the source states them, for the method shown. In cells and extracts the contact can be indirect. Some binding calls cover weakened binding; strength is not graded here.

In assay [1] the target is USF1 bHLH-ZIP transcription factor, endogenous (UniProt P22415). Nature of the assay: co-IP; endogenous proteins; cells lysed in RIPA buffer, lysate with antibody and beads overnight at 4 °C, immunoblot.
In assay [2] the target is USF1 bHLH-ZIP transcription factor, exogenous, wild type (UniProt P22415). Nature of the assay: co-IP; exogenous (tagged, overexpressed) proteins; cells lysed in RIPA buffer, lysate with antibody and beads overnight at 4 °C, immunoblot.
The target of assay [3] is USF1 T100A mutant (UniProt P22415). Nature of the assay: co-IP; USF1 wild type or T100A with USF2 or Cha (Supplementary Fig. 5j, k); set-up not given, method taken from the only binding method of the methods section.
In assay [4] the target is USF1 bHLH-ZIP transcription factor, exogenous, wild type (UniProt P22415). Described as above.

B1: dual specificity phosphatase 18 (DUSP18), endogenous (enzyme, UniProt Q8NEJ0 1-188)
chain: MTAPSCAFPVQFRQPSVSGLSQITKSLYISNGVAANNKLMLSSNQITMVINVSVEVVNTLYEDIQYMQVPVADSPNSRLCDFFDPIADHIHSVEMKQGRTLLHCAAGVSRSAALCLAYLMKYHAMSLLDAHTWTKSCRPIIRPNSGFWEQLIHYEFQLFGKNTVHMVSSPVGMIPDIYEKEVRLMIPL
With B1, the binding result in assay [1] is “binds”.

B2: dual specificity phosphatase 18 (DUSP18), exogenous (enzyme, UniProt Q8NEJ0 1-188)
chain: B1 chain
For B2, in assay [2], the binding entry was “binds”.

B3: transcriptional repressor Cha (protein, UniProt Q9UL49 1-500)
chain: MSGPGPREPPPEAGAAGGEAAVEGAGGGDAALGEPGLSFTTTDLSLVEMTEVEYTQLQHILCSHMEAAADGELETRLNSALLAAAGPGAGAGGFAAGGQGGAAPVYPVLCPSALAADAPCLGHIDFQELRMMLLSEAGAAEKTSGGGDGARARADGAAKEGAGAAAAAAGPDGAPEARAKPAVRVRLEDRFNSIPAEPPPAPRGPEPPEPGGALNNLVTLIRHPSELMNVPLQQQNKCTALVKNKTAATTTALQFTYPLFTTNACSTSGNSNLSQTQSSSNSCSVLEAAKHQDIGLPRAFSFCYQQEIESTKQTLGSRNKVLPEQVWIKVGEAALCKQALKRNRSRMRQLDTNVERRALGEIQNVGEGATATQGAWQSSESSQANLGEQAQSGPQGGRSQRRERHNRMERDRRRRIRICCDELNLLVPFCNAETDKATTLQWTTAFLKYIQERHGDSLKKEFESVFCGKTGRRLKLTRPDSLVTCPAQGSLQSSPSMEIK
For the molecule B3, the binding result in assay [3] and in assay [4] was “binds” each time.
